Data as given in PubChem BioAssay AID504791 (Drosophila RNAi Screening Center, 2011).
The deposit covers about 23,000 reagents; below is a random part of those with a known target gene and a result. Of all reagents, 199 (0.86%) were called active. 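Plate-scaled ratios behind the calls are not deposited; printed light signals are raw; many rows marked increased or decreased are still called inactive.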 Entries without a mark were called inactive. A plus sign joins genes that one reagent is predicted to hit.

- Screen: 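Genes of the fly required for silencing by miRNA, siRNA or endo-siRNA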 (primary screen)
- Cells: Drosophila S2-derived reporter cells
- Reagents: long dsRNA against Drosophila genes, about 150-250 ng dsRNA per well (siRNA assay); about 80-120 ng (miRNA assay)
- Duration: about 5 days (siRNA assay); about 4 days (miRNA assay)
- Treatment: copper sulfate induction of reporters: 25 µM (siRNA assay); 200 mM stated (miRNA assay), 1-2 days before reading
- Read-out: 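Per-well ratio of Renilla over firefly light, expressed relative to that plate's average ratio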
- Reading the numbers: siRNA reporter hit score: higher = 3 marks a strong hit with raised ratio; -3 a strong hit with lowered ratio
- Rule for the call: 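First-pass picks had plate-scaled ratios over 1.5 for the siRNA assay, over 1.6 for the miRNA assay, or under 0.6; two distinct dsRNAs had to score alike on retest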

no.	Gene	DRSC id	siRNA reporter hit score	miRNA reporter change	stable assay Renilla, run 1 (luminescence)	stable assay firefly, run 1 (luminescence)
1	CG31371	DRSC15079			6543	4.05e5
2	mAcon2	DRSC15629			5579	3.50e5
3	Prtl99C	DRSC15049			6420	3.44e5
4	CG42755 (retired record)	DRSC09105			5391	3.78e5
5	CG42755 (retired record)	DRSC09106			4364	3.42e5
6	tamo	DRSC04446		reporter ratio raised past the hit cutoff	10254	1.13e6
7	CG31064	DRSC14756			6148	4.22e5
8	CG31064	DRSC15941			6978	3.93e5
9	CG31064	DRSC15942			7260	4.65e5
10	CG31064	DRSC15943			8129	4.08e5
11	Sb	DRSC16851			8546	4.74e5
12	CG33642	DRSC01325			4763	3.35e5
13	nahoda	DRSC03954			4071	2.73e5
14	nahoda	DRSC04126			9029	1.60e6
15	Atu	DRSC12123	-3		6279	3.71e5
16	Gr68a	DRSC10803			6087	3.65e5
17	jhamt	DRSC01985			7236	3.89e5
18	Obp47b + CG7741	DRSC06330			6596	3.31e5
19	CG31482	DRSC12582			7522	5.37e5
20	fwd	DRSC08580			8612	2.59e5
21	CG15753 (retired record)	DRSC19718			3931	2.62e5
22	CG15753 (retired record)	DRSC22985			4954	3.82e5
23	CG30460	DRSC06559			6935	4.10e5
24	CG30460	DRSC06560			6280	2.32e5
25	CG30460	DRSC23115			4191	3.25e5
26	CG15475	DRSC02486			9161	4.71e5
27	pll	DRSC17026			6231	3.96e5
28	Cpr56F	DRSC07326			7211	3.12e5
29	Osi4	DRSC12134			7434	3.94e5
30	CG30062	DRSC21737			8523	4.47e5
31	SiaT	DRSC04494			6444	2.93e5
32	Ir64a	DRSC09759			5006	2.30e5
33	Ir64a	DRSC09760			5975	3.20e5
34	CG15861	DRSC04274			6948	5.21e5
